Data reported in ChEMBL document CHEMBL4316593 (Eur J Med Chem, 2019).
The source gives many values for each of these; only a part stands here.

Experiments:
Assay type in all cases: cell-based
Details in all cases: U-87MG ATCC
[1] = Inhibition of RTK/PI3K/AKT/mTOR signaling in human U87 cells assessed as down regulation of WDR7 gene expression at cytotoxic IC50 measured after 48 hrs relative to control
[2] = Inhibition of RTK/PI3K/AKT/mTOR signaling in human U87 cells assessed as down regulation of KIFAP3 gene expression at cytotoxic IC50 measured after 48 hrs relative to control
[3] = Inhibition of RTK/PI3K/AKT/mTOR signaling in human U87 cells assessed as down regulation of ZSWIM6 gene expression at cytotoxic IC50 measured after 48 hrs relative to control
[4] = Inhibition of RTK/PI3K/AKT/mTOR signaling in human U87 cells assessed as down regulation of PRDM2 gene expression at cytotoxic IC50 measured after 48 hrs relative to control
[5] = Inhibition of RTK/PI3K/AKT/mTOR signaling in human U87 cells assessed as down regulation of ATOX1 gene expression at cytotoxic IC50 measured after 48 hrs relative to control
[6] = Inhibition of RTK/PI3K/AKT/mTOR signaling in human U87 cells assessed as down regulation of NEK7 gene expression at cytotoxic IC50 measured after 48 hrs relative to control
[7] = Inhibition of RTK/PI3K/AKT/mTOR signaling in human U87 cells assessed as down regulation of ZNF777 gene expression at cytotoxic IC50 measured after 48 hrs relative to control
[8] = Inhibition of RTK/PI3K/AKT/mTOR signaling in human U87 cells assessed as down regulation of CDC42SE1 gene expression at cytotoxic IC50 measured after 48 hrs relative to control
[9] = Inhibition of RTK/PI3K/AKT/mTOR signaling in human U87 cells assessed as down regulation of PTGR1 gene expression at cytotoxic IC50 measured after 48 hrs relative to control
[10] = Inhibition of RTK/PI3K/AKT/mTOR signaling in human U87 cells assessed as down regulation of ZXDC gene expression at cytotoxic IC50 measured after 48 hrs relative to control
[11] = Inhibition of RTK/PI3K/AKT/mTOR signaling in human U87 cells assessed as down regulation of FAM91A1 gene expression at cytotoxic IC50 measured after 48 hrs relative to control
[12] = Inhibition of RTK/PI3K/AKT/mTOR signaling in human U87 cells assessed as down regulation of SF3B2 gene expression at cytotoxic IC50 measured after 48 hrs relative to control
[13] = Inhibition of RTK/PI3K/AKT/mTOR signaling in human U87 cells assessed as down regulation of MYO9B gene expression at cytotoxic IC50 measured after 48 hrs relative to control
[14] = Inhibition of RTK/PI3K/AKT/mTOR signaling in human U87 cells assessed as down regulation of CIZ1 gene expression at cytotoxic IC50 measured after 48 hrs relative to control
[15] = Inhibition of RTK/PI3K/AKT/mTOR signaling in human U87 cells assessed as down regulation of PI4K2A gene expression at cytotoxic IC50 measured after 48 hrs relative to control
[16] = Inhibition of RTK/PI3K/AKT/mTOR signaling in human U87 cells assessed as down regulation of LRPAP1 gene expression at cytotoxic IC50 measured after 48 hrs relative to control
[17] = Inhibition of RTK/PI3K/AKT/mTOR signaling in human U87 cells assessed as up regulation of WNT16 gene expression at cytotoxic IC50 measured after 48 hrs relative to control
[18] = Inhibition of RTK/PI3K/AKT/mTOR signaling in human U87 cells assessed as up regulation of NDRG1 gene expression at cytotoxic IC50 measured after 48 hrs relative to control
[19] = Inhibition of RTK/PI3K/AKT/mTOR signaling in human U87 cells assessed as up regulation of ARHGAP22 gene expression at cytotoxic IC50 measured after 48 hrs relative to control
[20] = Inhibition of RTK/PI3K/AKT/mTOR signaling in human U87 cells assessed as up regulation of ribosomal protein S6 kinase A5 gene expression at cytotoxic IC50 measured after 48 hrs relative to control
[21] = Inhibition of RTK/PI3K/AKT/mTOR signaling in human U87 cells assessed as up regulation of ST6 beta-galactoside alpha-2,6-sialyltransferase 1 gene expression at cytotoxic IC50 measured after 48 hrs relative to control
[22] = Inhibition of RTK/PI3K/AKT/mTOR signaling in human U87 cells assessed as up regulation of protein C receptor gene expression at cytotoxic IC50 measured after 48 hrs relative to control
[23] = Inhibition of RTK/PI3K/AKT/mTOR signaling in human U87 cells assessed as up regulation of RANBP2-type and C3HC4-type zinc finger containing 1 gene expression at cytotoxic IC50 measured after 48 hrs relative to control
[24] = Inhibition of RTK/PI3K/AKT/mTOR signaling in human U87 cells assessed as up regulation of ETS variant 6 gene expression at cytotoxic IC50 measured after 48 hrs relative to control
[25] = Inhibition of RTK/PI3K/AKT/mTOR signaling in human U87 cells assessed as up regulation of RAB17, member RAS oncogene family gene expression at cytotoxic IC50 measured after 48 hrs relative to control
[26] = Inhibition of RTK/PI3K/AKT/mTOR signaling in human U87 cells assessed as up regulation of cyclin dependent kinase 4 gene expression at cytotoxic IC50 measured after 48 hrs relative to control
[27] = Inhibition of RTK/PI3K/AKT/mTOR signaling in human U87 cells assessed as up regulation of FK506 binding protein 2 gene expression at cytotoxic IC50 measured after 48 hrs relative to control
[28] = Inhibition of RTK/PI3K/AKT/mTOR signaling in human U87 cells assessed as up regulation of solute carrier family 20 member 2 gene expression at cytotoxic IC50 measured after 48 hrs relative to control
[29] = Inhibition of RTK/PI3K/AKT/mTOR signaling in human U87 cells assessed as up regulation of fibrillarin gene expression at cytotoxic IC50 measured after 48 hrs relative to control
[30] = Inhibition of RTK/PI3K/AKT/mTOR signaling in human U87 cells assessed as up regulation of transmembrane protein 161A gene expression at cytotoxic IC50 measured after 48 hrs relative to control
[31] = Inhibition of RTK/PI3K/AKT/mTOR signaling in human U87 cells assessed as up regulation of AGPAT2 gene expression at cytotoxic IC50 measured after 48 hrs relative to control
[32] = Inhibition of RTK/PI3K/AKT/mTOR signaling in human U87 cells assessed as up regulation of UQCRC2 gene expression at cytotoxic IC50 measured after 48 hrs relative to control

For `CC(=O)C(=NNc1ccccc1C#N)C(C)=O`, the log2FC [1] was -1.52, the log2FC [2] was -1.45 and the log2FC [3] was -1.45. The log2FC [4] was -1.4, the log2FC [5] was -1.07 and the log2FC [6] was -0.92. For the same molecule, the log2FC [7] was -0.845, the log2FC [8] was -0.806 and the log2FC [9] was -0.805. It also gave a log2FC [10] of -0.801, a log2FC [11] of -0.702 and a log2FC [12] of -0.645. For the same molecule, the log2FC [13] was -0.578, the log2FC [14] was -0.5 and the log2FC [15] was -0.488. For the same molecule, the log2FC [16] was -0.445, the log2FC [17] was 3.37 and the log2FC [18] was 2. It also gave a log2FC [19] of 1.69, a log2FC [20] of 1.34 and a log2FC [21] of 1.28. The log2FC [22] was 1.19, the log2FC [23] was 1.14 and the log2FC [24] was 1.02. It also gave a log2FC [25] of 0.88, a log2FC [26] of 0.843 and a log2FC [27] of 0.792. It also gave a log2FC [28] of 0.779, a log2FC [29] of 0.663 and a log2FC [30] of 0.649. The log2FC [31] was 0.626 and the log2FC [32] was 0.557.
